Measurements taken from PMC3667844.
These are yes or no findings as the source states them, for the method shown. Some entries that bind do so weakly or less than the wild type.

Amino acid sequences for entries named in this document (tags omitted). A change or cut given only in a name is not applied to a line headed by its entry.
UniProt Q9H0U4: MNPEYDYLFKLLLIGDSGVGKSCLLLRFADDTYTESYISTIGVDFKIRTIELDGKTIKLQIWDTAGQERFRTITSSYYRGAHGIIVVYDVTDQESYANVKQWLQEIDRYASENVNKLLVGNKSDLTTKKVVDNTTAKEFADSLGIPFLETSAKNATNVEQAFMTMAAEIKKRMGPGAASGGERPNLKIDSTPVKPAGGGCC
UniProt P20340: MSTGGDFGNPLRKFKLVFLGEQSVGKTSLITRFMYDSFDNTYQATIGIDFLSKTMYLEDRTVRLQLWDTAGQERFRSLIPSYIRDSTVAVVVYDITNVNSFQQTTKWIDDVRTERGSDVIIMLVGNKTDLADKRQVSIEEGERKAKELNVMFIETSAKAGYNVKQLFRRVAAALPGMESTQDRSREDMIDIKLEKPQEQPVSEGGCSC
UniProt P62491: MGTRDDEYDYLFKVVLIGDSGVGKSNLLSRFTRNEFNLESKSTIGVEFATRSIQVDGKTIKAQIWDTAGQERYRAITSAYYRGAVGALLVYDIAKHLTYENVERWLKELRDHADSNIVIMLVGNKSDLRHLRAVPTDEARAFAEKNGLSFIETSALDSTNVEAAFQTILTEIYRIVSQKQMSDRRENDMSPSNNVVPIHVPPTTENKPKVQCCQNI
UniProt P61019: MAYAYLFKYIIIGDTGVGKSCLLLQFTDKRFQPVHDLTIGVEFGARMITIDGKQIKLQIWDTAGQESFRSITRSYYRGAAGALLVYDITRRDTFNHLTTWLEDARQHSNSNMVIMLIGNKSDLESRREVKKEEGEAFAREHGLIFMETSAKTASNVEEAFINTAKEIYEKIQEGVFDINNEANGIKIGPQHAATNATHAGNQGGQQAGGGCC
UniProt P62820: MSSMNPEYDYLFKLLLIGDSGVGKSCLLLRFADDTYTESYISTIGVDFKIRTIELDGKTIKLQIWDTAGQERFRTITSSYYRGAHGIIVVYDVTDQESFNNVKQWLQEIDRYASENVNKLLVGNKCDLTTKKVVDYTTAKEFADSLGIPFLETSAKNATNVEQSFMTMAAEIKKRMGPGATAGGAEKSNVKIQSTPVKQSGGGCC
UniProt Q9H082: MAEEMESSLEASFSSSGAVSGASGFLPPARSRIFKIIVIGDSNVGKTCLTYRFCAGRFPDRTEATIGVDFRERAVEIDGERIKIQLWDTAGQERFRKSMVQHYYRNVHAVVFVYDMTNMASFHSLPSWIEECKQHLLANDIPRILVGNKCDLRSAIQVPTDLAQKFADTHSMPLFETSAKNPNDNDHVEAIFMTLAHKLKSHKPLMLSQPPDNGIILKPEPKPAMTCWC
UniProt P61586: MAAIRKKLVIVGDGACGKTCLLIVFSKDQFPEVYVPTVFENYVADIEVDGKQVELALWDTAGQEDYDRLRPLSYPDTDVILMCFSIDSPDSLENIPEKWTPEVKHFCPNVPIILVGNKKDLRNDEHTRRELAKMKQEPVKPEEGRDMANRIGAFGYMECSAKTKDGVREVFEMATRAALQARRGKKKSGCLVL

Experiments:
Assay in all cases: two-hybrid; Y190 co-transformed with prey (pP6 or pACT) and bait (pAS) plasmids; growth on synthetic medium lacking leucine, tryptophan and histidine with 30 mM 3 AT (his3)
[1] = target: pAS Ypt6p wt (yeast) (UniProt Q99260)
[2] = target: pAS Rab1B Q67L (UniProt Q9H0U4)
[3] = target: pAS Rab6A Q72L (UniProt P20340)
[4] = target: pAS Rab11A wt (UniProt P62491)
[5] = target: T1, pAS Ypt6p Q69L (yeast) (UniProt Q99260)
T1 sequence: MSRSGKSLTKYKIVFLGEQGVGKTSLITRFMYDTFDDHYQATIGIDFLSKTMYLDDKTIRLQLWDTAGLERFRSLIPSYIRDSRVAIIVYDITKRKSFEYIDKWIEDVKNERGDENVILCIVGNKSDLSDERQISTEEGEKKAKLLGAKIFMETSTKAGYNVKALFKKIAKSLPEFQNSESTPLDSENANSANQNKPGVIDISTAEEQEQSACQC

[6] = target: pAS Rab2 Q65L (UniProt P61019)
[7] = target: pAS Rab1A wt (UniProt P62820)
[8] = target: pAS Rab33B Q92L (UniProt Q9H082)
[9] = target: pAS RhoA wt (UniProt P61586)
[10] = target: pAS Rab33B T47N (UniProt Q9H082)
[11] = target: pAS Rab33B wt (UniProt Q9H082)

B1: pP6 Mint1 (aa 438–769), yeast two-hybrid clone that lacks aa 495–505 (domain or fragment, UniProt Q02410-1)
chain: ASFPTYVEVPGPCDPEDLIDGIIFAANYLGSTQLLSDKTPSKNVRMMQAQEAVSRIKAPEGESQPMTEVDLFISTQRIKVLNADTQETMMDHPLRTISYIADIGNIVVLMARRRMPRSNSQENVEASHPSQDGKRQYKMICHVFESEDAQLIAQSIGQAFSVAYQEFLRANGINPEDLSQKEYSDLLNTQDMYNDDLIHFSKSENCKDVFIEKQKGEILGVVIVESGWGSILPTVIIANMMHGGPAEKSGKLNIGDQIMSINGTSLVGLPLSTCQSIIKGLKNQSRVKLNIVRCPPVTTVLIRRPDLRYQLGFSVQNGIIC
binding [1]: no binding
binding [2]: no binding
binding [3]: binds
binding [4]: no binding
binding [5]: no binding
binding [6]: no binding
binding [7]: no binding
binding [8]: no binding
binding [9]: no binding
binding [10]: no binding
binding [11]: no binding
